Results on 1 substance are retold here after paper PMC6478927.

Amino acid sequences for entries named in this document (tags omitted).
UniProt Q8N5F7: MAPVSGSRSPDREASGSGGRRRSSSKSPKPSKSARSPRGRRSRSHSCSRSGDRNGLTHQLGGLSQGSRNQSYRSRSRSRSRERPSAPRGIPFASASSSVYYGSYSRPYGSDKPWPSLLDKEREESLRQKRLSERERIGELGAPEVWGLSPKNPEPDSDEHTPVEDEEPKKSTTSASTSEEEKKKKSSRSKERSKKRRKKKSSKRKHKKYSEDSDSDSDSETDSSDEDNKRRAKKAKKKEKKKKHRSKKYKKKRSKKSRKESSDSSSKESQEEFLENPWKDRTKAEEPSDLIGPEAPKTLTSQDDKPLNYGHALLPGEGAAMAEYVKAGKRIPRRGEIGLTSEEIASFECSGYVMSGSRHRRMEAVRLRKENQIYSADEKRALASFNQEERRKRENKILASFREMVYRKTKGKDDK

The test has as its target T1, DiGeorge critical region 8 (DGCR8) (human (endogenous in PANC-1)) (UniProt Q8WYQ5).
T1 sequence: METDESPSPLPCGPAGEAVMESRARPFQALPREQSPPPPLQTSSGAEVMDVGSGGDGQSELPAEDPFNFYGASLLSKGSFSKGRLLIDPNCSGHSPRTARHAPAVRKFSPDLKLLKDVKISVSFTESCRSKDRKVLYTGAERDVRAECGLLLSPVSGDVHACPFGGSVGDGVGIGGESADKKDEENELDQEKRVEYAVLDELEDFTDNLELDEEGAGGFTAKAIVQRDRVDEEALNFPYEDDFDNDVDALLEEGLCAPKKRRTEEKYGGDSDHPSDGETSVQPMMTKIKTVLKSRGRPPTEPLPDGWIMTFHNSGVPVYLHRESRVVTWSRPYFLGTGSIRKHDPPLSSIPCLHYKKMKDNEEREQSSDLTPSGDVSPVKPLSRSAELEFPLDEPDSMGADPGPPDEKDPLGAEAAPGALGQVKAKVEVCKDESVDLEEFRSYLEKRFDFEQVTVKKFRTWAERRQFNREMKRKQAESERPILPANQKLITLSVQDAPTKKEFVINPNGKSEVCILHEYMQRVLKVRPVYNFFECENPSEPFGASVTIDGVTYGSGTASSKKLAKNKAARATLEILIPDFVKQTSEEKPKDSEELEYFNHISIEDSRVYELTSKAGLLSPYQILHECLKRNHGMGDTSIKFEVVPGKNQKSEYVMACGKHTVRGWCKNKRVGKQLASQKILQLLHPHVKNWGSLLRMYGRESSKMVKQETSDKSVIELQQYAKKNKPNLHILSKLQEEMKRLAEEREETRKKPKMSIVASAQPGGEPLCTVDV
Put plainly: affinity purification with mass spectrometry; co-IP with anti-DGCR8 antibody, proteins identified by mass spectrometry, integrated with RNA pulldown data.

No constants are given. Whether binding was seen depends on the method and setting. In cells and extracts the contact can be indirect. These calls come from enrichment with a bait or labelling near it, and not all partners need be listed.

Turning to “NF-κB associated protein (NKAP) (from UniProt Q8N5F7 1-415)”, the binding result is on record as “binds”.
